In this assay the target is SMCHD1-FLAG (stably expressed in mouse embryonic stem cells) (mouse) (UniProt Q6P5D8). As to the kind of experiment: affinity purification with mass spectrometry; SMCHD1-FLAG immunoprecipitated with M2 anti-FLAG antibody from ESC nuclear extracts, copurifying proteins identified by MS/MS; two independent experiments (PGK12.1-derived clone; Smchd1-/- ESC clone G2).

Protein sequences, listed by entry. Tags and fused reporters are not part of them.
UniProt Q6P5D8: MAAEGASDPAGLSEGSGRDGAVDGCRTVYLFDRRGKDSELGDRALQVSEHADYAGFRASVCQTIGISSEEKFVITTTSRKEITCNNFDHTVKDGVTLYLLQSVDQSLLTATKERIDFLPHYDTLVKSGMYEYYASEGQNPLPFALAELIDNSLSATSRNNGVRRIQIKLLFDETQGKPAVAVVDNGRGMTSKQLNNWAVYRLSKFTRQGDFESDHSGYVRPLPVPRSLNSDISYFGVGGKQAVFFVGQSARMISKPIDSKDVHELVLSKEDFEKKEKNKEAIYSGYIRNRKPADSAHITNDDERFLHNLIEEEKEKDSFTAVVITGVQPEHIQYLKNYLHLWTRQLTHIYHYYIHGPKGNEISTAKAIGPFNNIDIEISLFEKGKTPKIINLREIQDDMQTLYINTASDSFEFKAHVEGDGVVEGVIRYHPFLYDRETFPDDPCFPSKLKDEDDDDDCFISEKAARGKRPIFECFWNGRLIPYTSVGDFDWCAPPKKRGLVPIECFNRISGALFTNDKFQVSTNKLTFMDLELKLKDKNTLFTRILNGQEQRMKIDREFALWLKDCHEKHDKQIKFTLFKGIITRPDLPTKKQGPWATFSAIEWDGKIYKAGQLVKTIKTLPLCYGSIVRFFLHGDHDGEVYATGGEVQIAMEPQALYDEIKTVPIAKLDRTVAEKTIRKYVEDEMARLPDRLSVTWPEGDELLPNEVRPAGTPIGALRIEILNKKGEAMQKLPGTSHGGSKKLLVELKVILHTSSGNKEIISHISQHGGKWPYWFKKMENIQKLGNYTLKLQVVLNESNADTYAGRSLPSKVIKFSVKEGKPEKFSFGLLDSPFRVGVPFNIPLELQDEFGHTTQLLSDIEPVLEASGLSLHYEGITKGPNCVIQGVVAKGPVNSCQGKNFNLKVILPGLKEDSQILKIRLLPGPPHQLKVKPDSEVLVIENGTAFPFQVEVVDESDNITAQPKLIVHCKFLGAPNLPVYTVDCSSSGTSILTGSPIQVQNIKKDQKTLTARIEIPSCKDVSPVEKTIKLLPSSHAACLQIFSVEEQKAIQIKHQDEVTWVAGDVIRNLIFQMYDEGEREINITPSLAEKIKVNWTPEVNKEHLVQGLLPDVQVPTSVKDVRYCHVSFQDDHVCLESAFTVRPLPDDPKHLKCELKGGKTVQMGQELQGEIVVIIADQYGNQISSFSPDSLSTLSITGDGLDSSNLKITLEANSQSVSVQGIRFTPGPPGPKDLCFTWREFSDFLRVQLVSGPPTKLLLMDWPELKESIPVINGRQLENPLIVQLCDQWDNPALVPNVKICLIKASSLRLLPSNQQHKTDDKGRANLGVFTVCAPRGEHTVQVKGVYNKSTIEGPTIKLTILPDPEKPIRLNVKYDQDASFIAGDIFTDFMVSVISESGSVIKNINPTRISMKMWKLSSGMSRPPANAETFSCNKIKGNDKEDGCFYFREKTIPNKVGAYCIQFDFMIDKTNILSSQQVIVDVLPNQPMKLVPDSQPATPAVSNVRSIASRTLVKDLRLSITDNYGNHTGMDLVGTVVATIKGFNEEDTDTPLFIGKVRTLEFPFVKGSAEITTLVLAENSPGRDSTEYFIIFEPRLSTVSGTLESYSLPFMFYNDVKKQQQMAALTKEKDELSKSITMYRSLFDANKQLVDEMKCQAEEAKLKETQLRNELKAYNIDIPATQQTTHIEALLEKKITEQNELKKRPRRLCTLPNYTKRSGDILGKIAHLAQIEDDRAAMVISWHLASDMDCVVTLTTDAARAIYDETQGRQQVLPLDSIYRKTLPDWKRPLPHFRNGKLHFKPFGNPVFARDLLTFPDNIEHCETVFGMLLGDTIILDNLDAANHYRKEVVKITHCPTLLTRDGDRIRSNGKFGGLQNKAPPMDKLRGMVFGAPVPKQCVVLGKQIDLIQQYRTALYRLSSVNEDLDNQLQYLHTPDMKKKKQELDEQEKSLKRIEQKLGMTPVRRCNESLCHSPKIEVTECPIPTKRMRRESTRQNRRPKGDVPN
UniProt P23198: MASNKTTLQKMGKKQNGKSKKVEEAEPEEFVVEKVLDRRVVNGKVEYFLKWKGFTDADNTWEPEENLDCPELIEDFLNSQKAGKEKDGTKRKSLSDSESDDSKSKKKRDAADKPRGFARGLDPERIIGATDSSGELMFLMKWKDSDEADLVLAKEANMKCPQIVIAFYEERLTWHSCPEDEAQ

Results are given in words; binding and its absence hold for the method and conditions named. In cells and extracts the contact can be indirect. A yes stands for co-enrichment or nearness to the bait. Other partners may have been found.

Regarding “HP1γ (Chromobox homolog 3) (from UniProt P23198 1-183)”, the binding entry is recorded as “binds”.

B1: Ligand-dependent nuclear receptor-interacting factor 1 isoform 1 (protein, UniProt Q8CDD9 1-755)
chain: MSNSLQSVILKTAEEKSGSRCISGCMYQVVPTIGSDGKKLLQLLPISKSSGNLIPVVQSPVMSHGLKANTEKPVQVTFQTQISSSSTSASVQLPVFQPANTTKCFFTGAIDTTGKDRVTSVRTGNFTPPVSNIQNHGVKIHKLTRQTFTIPPSTQNDSSHFIFNTPSLLPNVNSSILPSGNHLKIPAHAEVKSVLASSLPPLVQQKILGTATTSTSGTVEASQIPTVVYVHPVNSVKFVVTKKTQTIYPKPVTFNTLQIPPNVATETQLKGGQHPQAAPVNSIFQEYLQPGIPCIIPVKSSNNVATKVLNTFVGRKNLGDNTIDTPLLNTNSSGRTHSVSEPIKDNALIMFNGKVWLNEKGTCGLPSKIDQQNSVSSDIPLKDSSQLVSSSIVTEISREILNSVLVKSKSFQLKTKSLSNSQLASMANLRAEKNEKVERPSFSVTNPHTMNQSTHCLKQSKTVFINPVFPDGFRTGQNAPRKGNLVQNIEKICSSVDAATVTSQQCVFRDQESQTQYEMASIVKKEIQEKGNNKKYSQGSHTNIKASCLKNDAEFKKLFGLTKDLRVCLTRIPDHLSSGKSFNSFNSLMKSSSYKDANIVVKKEEKKQSFSKKRKAETMKMGNTKKIKIENADDTVMSIMNGTDVASSQPLSSILPTSDISQHNIVTSHSTTREDKRTEAEHCSHEKQEKGTLSSSTSFEQSTFLNKNFMEDIFPVTPPELEETIRDEKIRRLKQILREKEAALEELRKKMYQKQ
Turning to B1, the binding entry is on record as “binds”.

Source of the values: publication PMC4628070, “Independent Mechanisms Target SMCHD1 to Trimethylated Histone H3 Lysine 9-Modified Chromatin and the Inactive X Chromosome” (Molecular and Cellular Biology, 2015).
